Laboratory results published in publication PMC5529512.
These are yes or no findings as the source states them, for the method shown. In cells and extracts the contact can be indirect. A yes stands for co-enrichment or nearness to the bait. Other partners may have been found.

Chains of the proteins cited; added tags and fusions are not shown. Residues count along the entry.
UniProt Q9Y4K1, residues 409-2131: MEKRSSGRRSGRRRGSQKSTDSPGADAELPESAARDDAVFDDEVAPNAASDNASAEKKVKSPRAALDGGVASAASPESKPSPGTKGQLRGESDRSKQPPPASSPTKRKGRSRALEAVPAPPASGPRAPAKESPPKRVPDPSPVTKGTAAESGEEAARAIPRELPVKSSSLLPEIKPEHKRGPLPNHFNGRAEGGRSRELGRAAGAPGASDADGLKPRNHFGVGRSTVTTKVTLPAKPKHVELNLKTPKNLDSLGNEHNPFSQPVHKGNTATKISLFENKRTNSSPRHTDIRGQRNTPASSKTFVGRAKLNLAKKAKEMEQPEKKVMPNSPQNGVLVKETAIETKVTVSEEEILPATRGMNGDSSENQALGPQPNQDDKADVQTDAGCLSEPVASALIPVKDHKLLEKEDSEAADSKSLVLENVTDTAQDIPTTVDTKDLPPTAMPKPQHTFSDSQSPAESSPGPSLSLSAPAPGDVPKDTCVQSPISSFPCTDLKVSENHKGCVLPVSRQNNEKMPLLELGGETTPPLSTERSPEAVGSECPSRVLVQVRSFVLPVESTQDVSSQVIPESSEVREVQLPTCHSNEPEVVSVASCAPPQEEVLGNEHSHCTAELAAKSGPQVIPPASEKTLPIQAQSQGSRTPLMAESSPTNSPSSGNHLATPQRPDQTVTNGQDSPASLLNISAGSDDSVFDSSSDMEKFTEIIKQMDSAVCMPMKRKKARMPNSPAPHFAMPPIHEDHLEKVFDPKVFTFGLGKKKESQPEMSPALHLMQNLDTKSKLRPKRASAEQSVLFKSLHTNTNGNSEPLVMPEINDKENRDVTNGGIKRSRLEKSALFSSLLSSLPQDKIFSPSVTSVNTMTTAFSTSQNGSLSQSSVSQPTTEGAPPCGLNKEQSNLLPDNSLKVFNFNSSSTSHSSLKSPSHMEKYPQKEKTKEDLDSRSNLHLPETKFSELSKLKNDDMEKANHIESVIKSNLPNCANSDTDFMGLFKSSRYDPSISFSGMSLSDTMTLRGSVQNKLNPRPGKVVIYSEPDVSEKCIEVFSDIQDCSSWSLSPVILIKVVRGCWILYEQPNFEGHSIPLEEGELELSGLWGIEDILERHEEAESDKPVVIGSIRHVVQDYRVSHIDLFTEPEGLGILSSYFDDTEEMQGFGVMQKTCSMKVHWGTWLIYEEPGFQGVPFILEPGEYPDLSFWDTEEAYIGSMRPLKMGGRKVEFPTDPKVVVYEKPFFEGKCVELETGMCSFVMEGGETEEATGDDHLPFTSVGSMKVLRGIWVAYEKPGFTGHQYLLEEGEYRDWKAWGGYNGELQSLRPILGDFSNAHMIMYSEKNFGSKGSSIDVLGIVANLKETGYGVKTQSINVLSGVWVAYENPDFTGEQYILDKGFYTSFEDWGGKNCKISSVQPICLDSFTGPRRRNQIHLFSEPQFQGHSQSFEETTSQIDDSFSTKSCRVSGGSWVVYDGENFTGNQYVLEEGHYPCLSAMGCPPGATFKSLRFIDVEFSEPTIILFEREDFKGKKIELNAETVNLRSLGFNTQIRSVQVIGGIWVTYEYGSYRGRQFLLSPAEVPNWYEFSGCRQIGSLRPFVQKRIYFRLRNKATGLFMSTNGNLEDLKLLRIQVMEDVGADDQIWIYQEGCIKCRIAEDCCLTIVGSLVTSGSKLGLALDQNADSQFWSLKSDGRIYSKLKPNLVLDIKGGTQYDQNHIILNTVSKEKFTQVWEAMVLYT
UniProt Q16643: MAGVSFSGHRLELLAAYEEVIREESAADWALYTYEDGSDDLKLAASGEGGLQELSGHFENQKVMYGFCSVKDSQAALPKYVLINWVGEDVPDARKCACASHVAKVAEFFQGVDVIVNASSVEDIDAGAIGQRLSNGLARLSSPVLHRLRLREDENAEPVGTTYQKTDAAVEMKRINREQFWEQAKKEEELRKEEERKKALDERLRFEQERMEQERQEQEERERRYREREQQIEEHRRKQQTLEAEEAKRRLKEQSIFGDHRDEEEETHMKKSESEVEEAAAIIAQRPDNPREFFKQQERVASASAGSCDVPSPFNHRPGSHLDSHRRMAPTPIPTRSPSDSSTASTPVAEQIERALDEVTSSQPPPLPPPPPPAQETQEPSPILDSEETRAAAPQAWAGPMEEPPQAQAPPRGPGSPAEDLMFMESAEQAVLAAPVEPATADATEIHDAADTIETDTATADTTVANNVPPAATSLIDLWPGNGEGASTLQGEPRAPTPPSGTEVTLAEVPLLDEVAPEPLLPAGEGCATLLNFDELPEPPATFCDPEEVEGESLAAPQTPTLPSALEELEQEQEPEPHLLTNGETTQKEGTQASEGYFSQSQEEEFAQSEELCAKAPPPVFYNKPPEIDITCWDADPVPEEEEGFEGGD
UniProt P13647: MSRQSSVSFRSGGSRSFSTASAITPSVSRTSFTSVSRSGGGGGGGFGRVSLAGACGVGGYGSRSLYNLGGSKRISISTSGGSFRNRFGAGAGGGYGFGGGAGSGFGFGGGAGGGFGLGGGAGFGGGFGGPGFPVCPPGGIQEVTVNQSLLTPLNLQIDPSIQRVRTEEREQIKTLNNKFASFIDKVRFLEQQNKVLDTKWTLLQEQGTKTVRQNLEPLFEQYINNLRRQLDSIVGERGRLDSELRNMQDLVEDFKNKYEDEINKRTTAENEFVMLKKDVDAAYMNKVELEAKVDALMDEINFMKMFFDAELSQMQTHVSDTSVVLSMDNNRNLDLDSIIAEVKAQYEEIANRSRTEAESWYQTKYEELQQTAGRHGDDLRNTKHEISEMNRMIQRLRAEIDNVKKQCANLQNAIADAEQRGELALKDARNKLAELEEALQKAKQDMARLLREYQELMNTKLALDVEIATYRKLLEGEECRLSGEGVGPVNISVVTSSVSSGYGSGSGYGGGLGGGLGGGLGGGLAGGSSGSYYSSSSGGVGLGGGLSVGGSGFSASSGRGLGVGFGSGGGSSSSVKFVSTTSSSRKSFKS
UniProt P13645: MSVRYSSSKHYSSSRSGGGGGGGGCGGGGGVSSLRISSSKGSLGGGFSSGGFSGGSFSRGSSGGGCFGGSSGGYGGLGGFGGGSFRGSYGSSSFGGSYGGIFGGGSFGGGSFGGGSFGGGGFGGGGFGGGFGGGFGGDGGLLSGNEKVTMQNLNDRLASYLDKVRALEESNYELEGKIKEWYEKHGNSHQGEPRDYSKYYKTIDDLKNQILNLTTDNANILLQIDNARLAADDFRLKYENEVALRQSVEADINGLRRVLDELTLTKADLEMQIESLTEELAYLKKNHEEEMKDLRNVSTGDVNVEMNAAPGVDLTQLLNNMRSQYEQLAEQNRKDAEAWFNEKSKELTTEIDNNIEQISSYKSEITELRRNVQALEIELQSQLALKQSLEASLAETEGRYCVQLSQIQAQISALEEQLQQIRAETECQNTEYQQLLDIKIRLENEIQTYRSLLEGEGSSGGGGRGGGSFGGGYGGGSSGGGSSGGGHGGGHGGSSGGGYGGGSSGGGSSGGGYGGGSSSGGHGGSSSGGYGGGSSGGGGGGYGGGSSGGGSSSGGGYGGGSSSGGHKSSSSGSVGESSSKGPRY
UniProt P35579: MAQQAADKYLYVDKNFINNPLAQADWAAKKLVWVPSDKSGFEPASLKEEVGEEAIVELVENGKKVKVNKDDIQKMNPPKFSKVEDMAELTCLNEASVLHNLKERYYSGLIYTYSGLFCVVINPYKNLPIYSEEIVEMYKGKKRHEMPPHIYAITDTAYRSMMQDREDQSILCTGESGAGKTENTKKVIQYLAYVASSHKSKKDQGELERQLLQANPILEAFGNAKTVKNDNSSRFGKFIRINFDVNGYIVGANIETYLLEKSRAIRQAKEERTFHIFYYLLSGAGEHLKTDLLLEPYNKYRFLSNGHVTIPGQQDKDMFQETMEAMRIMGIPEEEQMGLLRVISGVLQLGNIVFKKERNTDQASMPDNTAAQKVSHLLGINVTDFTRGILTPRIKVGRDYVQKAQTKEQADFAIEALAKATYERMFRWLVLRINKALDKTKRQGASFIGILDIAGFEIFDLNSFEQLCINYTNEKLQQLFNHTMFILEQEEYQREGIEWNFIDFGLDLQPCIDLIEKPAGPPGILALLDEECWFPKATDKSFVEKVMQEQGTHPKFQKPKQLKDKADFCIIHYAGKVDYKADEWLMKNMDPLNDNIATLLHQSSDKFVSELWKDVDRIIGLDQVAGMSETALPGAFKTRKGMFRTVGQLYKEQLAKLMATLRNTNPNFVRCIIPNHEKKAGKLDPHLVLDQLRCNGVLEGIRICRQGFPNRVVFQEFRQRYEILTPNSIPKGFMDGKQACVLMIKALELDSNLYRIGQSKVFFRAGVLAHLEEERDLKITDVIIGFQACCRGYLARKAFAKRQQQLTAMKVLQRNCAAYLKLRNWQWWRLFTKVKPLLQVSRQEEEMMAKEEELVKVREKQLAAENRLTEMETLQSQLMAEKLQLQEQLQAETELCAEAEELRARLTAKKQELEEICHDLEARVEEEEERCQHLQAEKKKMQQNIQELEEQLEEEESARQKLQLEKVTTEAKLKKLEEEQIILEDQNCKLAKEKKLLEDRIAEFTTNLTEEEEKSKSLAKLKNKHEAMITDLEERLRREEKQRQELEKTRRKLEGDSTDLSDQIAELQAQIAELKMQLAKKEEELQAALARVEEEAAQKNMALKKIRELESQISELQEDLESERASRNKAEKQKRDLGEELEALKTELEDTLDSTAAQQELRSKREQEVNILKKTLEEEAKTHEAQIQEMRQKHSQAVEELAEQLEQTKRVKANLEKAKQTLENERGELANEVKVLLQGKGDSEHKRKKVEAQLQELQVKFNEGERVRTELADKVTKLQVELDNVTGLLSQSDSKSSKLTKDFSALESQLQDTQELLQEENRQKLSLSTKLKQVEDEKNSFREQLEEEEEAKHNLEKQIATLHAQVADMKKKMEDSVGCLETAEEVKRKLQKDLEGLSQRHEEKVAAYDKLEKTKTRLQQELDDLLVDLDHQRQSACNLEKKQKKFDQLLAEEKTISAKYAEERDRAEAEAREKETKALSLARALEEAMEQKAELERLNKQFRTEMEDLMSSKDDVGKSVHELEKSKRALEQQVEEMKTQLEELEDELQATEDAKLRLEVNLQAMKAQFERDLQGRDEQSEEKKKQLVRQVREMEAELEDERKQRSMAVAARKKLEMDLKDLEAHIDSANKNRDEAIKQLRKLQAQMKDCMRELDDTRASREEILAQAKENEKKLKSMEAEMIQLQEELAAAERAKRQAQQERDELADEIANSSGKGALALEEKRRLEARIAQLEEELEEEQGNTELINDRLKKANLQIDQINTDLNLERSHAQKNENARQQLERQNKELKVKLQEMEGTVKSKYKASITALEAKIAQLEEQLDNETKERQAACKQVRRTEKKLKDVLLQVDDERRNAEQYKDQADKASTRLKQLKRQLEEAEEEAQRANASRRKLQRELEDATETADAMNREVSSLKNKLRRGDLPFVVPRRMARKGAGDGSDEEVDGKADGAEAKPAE
UniProt P09874: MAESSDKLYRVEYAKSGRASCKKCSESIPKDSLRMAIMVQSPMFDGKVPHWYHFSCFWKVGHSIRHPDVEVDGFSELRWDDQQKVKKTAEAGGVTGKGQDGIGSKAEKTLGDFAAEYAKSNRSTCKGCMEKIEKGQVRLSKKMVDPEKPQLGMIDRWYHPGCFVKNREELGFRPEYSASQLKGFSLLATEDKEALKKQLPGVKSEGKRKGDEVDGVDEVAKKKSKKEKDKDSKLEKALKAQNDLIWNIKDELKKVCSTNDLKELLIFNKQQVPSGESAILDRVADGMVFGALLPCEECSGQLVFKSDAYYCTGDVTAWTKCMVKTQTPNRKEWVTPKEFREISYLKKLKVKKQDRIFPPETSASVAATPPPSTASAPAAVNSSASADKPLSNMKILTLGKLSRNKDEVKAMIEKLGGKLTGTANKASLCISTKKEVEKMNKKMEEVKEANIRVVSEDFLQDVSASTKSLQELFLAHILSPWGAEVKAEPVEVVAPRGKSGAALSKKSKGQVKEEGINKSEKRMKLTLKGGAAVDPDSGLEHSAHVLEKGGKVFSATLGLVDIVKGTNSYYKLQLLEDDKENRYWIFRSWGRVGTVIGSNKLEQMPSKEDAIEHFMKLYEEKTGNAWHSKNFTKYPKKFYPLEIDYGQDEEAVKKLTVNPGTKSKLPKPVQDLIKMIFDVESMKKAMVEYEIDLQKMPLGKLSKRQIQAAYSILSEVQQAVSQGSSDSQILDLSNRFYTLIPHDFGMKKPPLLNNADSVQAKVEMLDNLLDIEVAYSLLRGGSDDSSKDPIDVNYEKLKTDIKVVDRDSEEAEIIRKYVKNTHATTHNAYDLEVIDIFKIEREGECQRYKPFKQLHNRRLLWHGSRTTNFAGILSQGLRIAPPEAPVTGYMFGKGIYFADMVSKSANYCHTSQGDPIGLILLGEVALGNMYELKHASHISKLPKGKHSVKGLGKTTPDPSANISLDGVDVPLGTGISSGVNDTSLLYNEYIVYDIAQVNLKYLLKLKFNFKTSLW

Molecular target: AIM1 (absent in melanoma 1), biotin-affinity-tagged, wild type (human) (UniProt Q9Y4K1)
Test: affinity purification with mass spectrometry; biotin-affinity-tagged AIM1 transiently expressed in HEK293 against control vector; lysis in CoIP buffer (50 mM HEPES pH 7.5, 1% Triton X-100); streptavidin beads, elution with AcTEV protease, 60 kDa size selection, LC-MS/MS; single experiment

Substance | binding
Clathrin heavy chain 1 (from UniProt Q00610 1-1675) | binds
Drebrin 1 isoform a (from UniProt Q16643 1-649) | binds
Filamin A, alpha isoform 1 (from UniProt P21333-2 1-2639) | binds
Filamin B (from UniProt O75369 1-2602) | binds
Keratin 1 (from UniProt P04264 1-644) | binds
Keratin 2 (from UniProt P35908 1-639) | binds
Keratin 5 (from UniProt P13647 1-590) | binds
Keratin 6A (from UniProt P02538 1-564) | binds
Keratin 10 (from UniProt P13645 1-584) | binds
Myosin, heavy polypeptide 9 (from UniProt P35579 1-1960) | binds
Myosin, heavy polypeptide 10 (from UniProt P35580 1-1976) | binds
Poly (ADP-ribose) polymerase (from UniProt P09874 1-1014) | binds
Vimentin (from UniProt P08670 1-466) | binds
